Source: PMC11257983 (2024)
Substitutions are numbered along the chain they refer to. Results are given in words; binding and its absence hold for the method and conditions named. For some of these results: In cells and extracts the contact can be indirect. Some results given as binding are weak or reduced against the parent protein; the word gives no strength. For some of these results: Sequences can lack the tags named with a protein.

Experiments:
[1] = biological target: T1, GST-HYP L90D (Drosophila) (UniProt Q8ML92); assay: pull-down; GST-HYP as bait, Flag-CNK^2–549 variants co-expressed in S2 cells without other pathway components (binary CNK–HYP interaction); total lysates, overnight at 4 °C; immunoblot
T1 sequence: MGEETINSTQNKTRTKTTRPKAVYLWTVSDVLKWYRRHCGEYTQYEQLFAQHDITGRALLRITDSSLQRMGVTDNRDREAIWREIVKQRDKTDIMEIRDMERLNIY

[2] = biological target: T2, GST-HYP I97D (Drosophila) (UniProt Q8ML92); assay: as above
T2 sequence: T1 sequence with D90L, I97D

GST-HYP (Drosophila) [3] = biological target: T3, GST-HYP (Drosophila) (UniProt Q8ML92); assay: as above
T3 sequence: T1 sequence with D90L

[4] = biological target: T1, GST-HYP L90D (Drosophila); assay: pull-down; GST-HYP as bait, CNK^2–549 co-expressed in S2 cells with Ha-RAS^V12, Pyo-RAF, V5-KSR and Myc-MEK (RRKM); total lysates, overnight at 4 °C; immunoblot
[5] = biological target: T2, GST-HYP I97D (Drosophila); assay: as above
GST-HYP (Drosophila) [6] = biological target: T3, GST-HYP (Drosophila); assay: as above
GST-HYP (Drosophila) [7] = biological target: T3, GST-HYP (Drosophila); assay: pull-down; GST-HYP as bait, CNK, KSR and MEK variants co-expressed in S2 cells (Fig. 2c,d; Extended Data Fig. 7e); total lysates, overnight at 4 °C; immunoblot
[8] = biological target: T4, CNK^2–330 V198E (Drosophila) (UniProt Q7KNQ9); assay: SEC; co-expressed and co-purified binary complexes (CNK–HYP or KSR–MEK) run alone; 20 mM HEPES pH 7.0, 500 mM NaCl, 1 mM TCEP; S200 10/300 column; both purified
T4 sequence: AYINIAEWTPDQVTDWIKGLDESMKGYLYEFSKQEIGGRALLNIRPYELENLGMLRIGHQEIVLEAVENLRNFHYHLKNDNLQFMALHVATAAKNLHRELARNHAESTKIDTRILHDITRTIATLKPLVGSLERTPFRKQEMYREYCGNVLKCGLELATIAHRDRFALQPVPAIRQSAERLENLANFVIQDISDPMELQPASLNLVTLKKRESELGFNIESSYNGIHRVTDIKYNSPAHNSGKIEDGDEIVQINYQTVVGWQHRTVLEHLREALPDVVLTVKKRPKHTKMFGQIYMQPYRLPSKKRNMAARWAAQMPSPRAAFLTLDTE

[9] = biological target: T5, CNK^2–330 M197E (Drosophila) (UniProt Q7KNQ9); assay: as above
T5 sequence: T4 sequence with M196E, E197V

[10] = biological target: T6, CNK^2–330 D195K (Drosophila) (UniProt Q7KNQ9); assay: as above
T6 sequence: T4 sequence with D194K, E197V

CNK^2–330 (Drosophila) [11] = biological target: T7, CNK^2–330 (Drosophila) (UniProt Q7KNQ9); assay: as above
T7 sequence: T4 sequence with E197V

CNK^2–330 (Drosophila) [12] = biological target: T7, CNK^2–330 (Drosophila); assay: crystal structure; CNK^2–330–HYP^2–106 complex, 20 mg/ml, 0.1 M Bis-Tris propane pH 7.0, 1.0 M ammonium tartrate, 20 °C; co-expressed and co-purified; both purified
CNK^2–330 (Drosophila) [13] = biological target: T7, CNK^2–330 (Drosophila); assay: cryo-EM structure; 6 µM KSR–MEK complex mixed with 6.7 µM CNK–HYP complex, 1 mM MgCl2, 1 mM AMP–PNP, 50 µM trametinib, 4 °C; both purified

Measured: binding

B1: Flag-CNK^2–549 (domain or fragment, UniProt Q7KNQ9 2-549)
chain: AYINIAEWTPDQVTDWIKGLDESMKGYLYEFSKQEIGGRALLNIRPYELENLGMLRIGHQEIVLEAVENLRNFHYHLKNDNLQFMALHVATAAKNLHRELARNHAESTKIDTRILHDITRTIATLKPLVGSLERTPFRKQEMYREYCGNVLKCGLELATIAHRDRFALQPVPAIRQSAERLENLANFVIQDISDPMVLQPASLNLVTLKKRESELGFNIESSYNGIHRVTDIKYNSPAHNSGKIEDGDEIVQINYQTVVGWQHRTVLEHLREALPDVVLTVKKRPKHTKMFGQIYMQPYRLPSKKRNMAARWAAQMPSPRAAFLTLDTEQLATGGTGSAVPDPSKSLSSEKREVLTKANPVSSASDSDSSCSDIPTPTDPKLAAREIRLYYPKPRALLQRRNTICGCEYLSLKNSDLVVPSWHERKPGIGSPTNCDPGSPSIRDKSISFGYGLEMAARPTTCIGIAGDTSTDKARRMFHEARKLKQLTEDSQREFLVDRYKPGVSKVVRFDAKEDYVMKNEKFICNVENTILETFEPIPFADEGDEDA
binds: [1] | [2] | GST-HYP (Drosophila) [3] | [4] | [5] | GST-HYP (Drosophila) [6] | GST-HYP (Drosophila) [7]

B2: HYP^2–106 (protein, UniProt Q8ML92 2-106)
chain: GEETINSTQNKTRTKTTRPKAVYLWTVSDVLKWYRRHCGEYTQYEQLFAQHDITGRALLRITDSSLQRMGVTDNRDREAIWREIVKQRLKTDIMEIRDMERLNIY
binds: [8] | [9] | [10] | CNK^2–330 (Drosophila) [11] | CNK^2–330 (Drosophila) [12] | CNK^2–330 (Drosophila) [13]
